Measured values published in PubChem BioAssay AID2517 (National Center for Advancing Translational Sciences (NCATS), 2010).
“And” between values parts separate entries of the source, which are not always exact repeats. Equal entries are not always repeated. Out of some 350,000 compounds screened, about 1,200 (0.34%) were called active. This list was built around the results that the source calls inconclusive (neither active nor inactive); the mix of calls is not that of the screen. Calls follow the shape of the dose curve; as a rule, active = well fitted inhibition curve with a large enough effect; inconclusive = small, poorly fitted or top-dose-only effect; inactive = no such curve, though single readings can be large or run the other way. Potencies beside an inconclusive call are fits to weak or partial responses and may not hold up.
Also: nearly all actives have a fitted effect of over 55% in size.
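For activity change, negative = inhibition in this document: plate controls were vehicle for no effect and reference inhibitor for full effect.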
Potency is read from the fitted curve at half-maximal effect.

Chains of the proteins cited; added tags and fusions are not shown.
UniProt P27695, whole entry, looked up: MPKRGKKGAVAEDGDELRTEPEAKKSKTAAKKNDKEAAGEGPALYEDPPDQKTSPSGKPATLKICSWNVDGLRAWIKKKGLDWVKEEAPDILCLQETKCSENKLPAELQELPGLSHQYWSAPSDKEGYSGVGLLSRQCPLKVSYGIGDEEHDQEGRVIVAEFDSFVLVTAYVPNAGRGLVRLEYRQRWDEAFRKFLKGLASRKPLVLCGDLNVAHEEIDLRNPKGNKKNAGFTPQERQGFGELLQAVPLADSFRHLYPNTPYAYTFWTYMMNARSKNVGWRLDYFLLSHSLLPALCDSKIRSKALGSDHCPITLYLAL

The molecules below were run against DNA repair nuclease/redox regulator APEX1 (Homo sapiens) (UniProt P27695) (assay: qHTS Assay for Inhibitors of the Human Apurinic/apyrimidinic Endonuclease 1 (APE1)). Settings: recombinant APE1, TAMRA/BHQ-2 abasic DNA cleavage fluorescence; activity change, negative = inhibition: at 65.8 µM (top of the series).
Method in brief: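 Compound pre-exposure to 0.75 nM APE1, 15 min at ambient temperature. Reaction initiated with 50 nM TAMRA/BHQ-2 THF substrate, read immediately in kinetic mode, 525 nm excitation, 598 nm emission.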
`CCN(CC)c1ccc(/C=C2\C(=O)N(c3nnc(C)c(=O)[nH]3)N=C2C)cc1` was tested, and the Potency was inconclusive: 0.0071 µM [inhibitor, full curve, poor fit].
With `Clc1ccc(CSc2nnc3ccccn23)c(Cl)c1` the Potency was inconclusive: 3.16 µM [inhibitor, partial curve].
With `COc1ccc(N(CC(=O)Nc2ccc3c(c2)OCO3)S(=O)(=O)c2ccccc2)c(OC)c1` the Potency was inconclusive: 0.794 µM [inhibitor, full curve, poor fit].
For `COc1cc(NC(=O)c2cnc(N)s2)cc(C(=O)Nc2cccc(C(F)(F)F)c2)c1`, the “activity change, negative = inhibition” value was inactive: -5.22%.
`COc1ccc(COC(=O)N/N=C2/C[C@@H](O)[C@@H](O)[C@@H]3[C@@H]4C(=O)N([C@@H](C)c5ccccc5)C(=O)[C@H]4CC[C@H]23)cc1` was tested, and the Potency was inconclusive: 2.82 µM [inhibitor, single point].
`COc1cc(O)c2c(c1)oc(=O)c1c3cc(O)c(O)cc3oc21` was tested, and the Potency was active: 10 µM and active: 1.78 µM.
In the case of `O=C1c2ccccc2CN1CCNC(=S)NC1CCCCC1`, the Potency is reported as inconclusive: 0.224 µM [inhibitor, full curve, poor fit].
With `CCOC(=O)COc1ccccc1C1Nc2ccccc2C(=O)N1c1cccc(Cl)c1` (stereo not given) the Potency was inconclusive: 44.7 µM [inhibitor, single point].
For `COCCNC(=O)Cn1cc(C(=O)c2ccco2)c2ccccc21`, the Potency was inconclusive: 0.199 µM [inhibitor, full curve, poor fit].
With `Cc1ccc(CSc2nc3ccsc3c(=O)n2Cc2ccccn2)cc1` the Potency was inconclusive: 1 µM [inhibitor, full curve, poor fit].
For `CCCCNC(=O)Cn1c(=O)oc2cc(S(=O)(=O)N3CC(C)CC(C)C3)ccc21` (stereo not given), the Potency was inconclusive: 8.91 µM [inhibitor, single point].
With `O=C(COC(=O)c1ccccc1O)NCCc1c[nH]c2ccccc12` the “activity change, negative = inhibition” value was inactive: 36.1%.
With `CC(=O)N1CCCN(Cc2cn(-c3cccc(C)c3)nc2-c2cccc(F)c2)CC1` the Potency was inconclusive: 35.5 µM [inhibitor, partial curve, poor fit].
For `C=CCn1c(COc2ccccc2F)nnc1SCC(=O)NC(=O)NCc1ccco1`, the Potency was inconclusive: 31.6 µM [inhibitor, single point].
`COc1ccc(C(=O)/C=C(\C)Nc2ccc3c(c2)OCO3)cc1` was tested, and the Potency was inconclusive: 11.2 µM [inhibitor, partial curve, poor fit].
`C=CCc1ccccc1OCC(=O)O` was tested, and the Potency was inconclusive: 31.6 µM [inhibitor, single point].
In the case of `Cc1c(C(=O)OC2CCCC2)[nH]c2c1C(=O)CC(c1ccco1)C2` (stereo not given), the Potency is reported as inconclusive: 35.5 µM [inhibitor, single point].
With `C=C1C=C(C(F)F)n2ncc(C(=O)NCc3ccccc3Cl)c2N1` the “activity change, negative = inhibition” value was inactive: 39.6%.
With `Cc1ccc(C(=O)NCc2ccc3c(c2)OCO3)cc1S(=O)(=O)N1CCCCC1` the Potency was inconclusive: 25.1 µM [inhibitor, single point].
`Cc1cc(O)c2c(c1O)C(=O)[C@]13C(=C2O)C(=O)[C@@H]2[C@@H](O)[C@H]1[C@@H]1[C@H](O)[C@H]3C(=O)C3=C(O)c4c(O)cc(C)c(O)c4C(=O)[C@]312` was tested, and the Potency was active: 9.47 µM.
In the case of `Cc1cc(/C=C2\SC(=S)NC2=O)c(C)[nH]1`, the Potency is reported as inconclusive: 2.24 µM [inhibitor, partial curve, poor fit].
`COc1ccc(CCNC(=O)c2ccc(S(=O)(=O)N(C)c3ccccc3)cc2)cc1OC` was tested, and the activity change, negative = inhibition was inactive: 10% [at 12.4 µM].
In the case of `CC1=[N+](C)N(c2ccccc2)C(=O)C1N=C/C=C/c1ccccc1` (stereo not given), the Potency is reported as inconclusive: 3.55 µM [inhibitor, single point].
In the case of `Cc1cc(C)c(NC(=S)NCC2CCN(C(C)c3ccccc3)C2)c(C)c1` (stereo not given), the Potency is reported as inconclusive: 39.8 µM [inhibitor, single point].
For `Cc1c(N=C2N=C(NC(=O)c3ccc(F)cc3)c3ccccc32)c(=O)n(-c2ccccc2)n1C`, the “activity change, negative = inhibition” value was inactive: 14.2%.
With `CN(C)c1ccc(N2C(=O)CSC2=S)cc1` the Potency was active: 10 µM.
With `NC(=O)C1CCN(S(=O)(=O)c2cccc(C(=O)O)c2)CC1` the Potency was inconclusive: 22.4 µM [inhibitor, single point].
In the case of `Cc1ccc(S(=O)(=O)NN2C(=O)c3ccccc3NC2(C)C)cc1`, the Potency is reported as inconclusive: 44.7 µM [inhibitor, single point].
In the case of `COC(=O)c1ccccc1NC(=O)CCS(=O)(=O)c1ccc(Br)cc1`, the Potency is reported as inconclusive: 31.6 µM [inhibitor, partial curve].
With `C=CCn1c(SCC(=O)Nc2cccnc2Cl)nnc1-c1ccc(Cl)cc1` the Potency was inconclusive: 39.8 µM [inhibitor, single point].
`CCOC(=O)C1=C(Cc2ccc(OC)cc2)C(=O)c2ccccc2C1=O` was tested, and the Potency was inconclusive: 12.6 µM [inhibitor, partial curve, poor fit].
`O=C(/C=C/c1ccc(Br)o1)OCc1nc2ccsc2c(=O)[nH]1` was tested, and the Potency was inconclusive: 0.267 µM [inhibitor, full curve, poor fit].
With `COc1ccc2c(c1)OC1(O)COc3cc(OC)c(OC)cc3C1=C2` (stereo not given) the “activity change, negative = inhibition” value was inactive: -3.84%.
With `Cn1nc(C(F)(F)F)c(-c2cccc(C(F)(F)F)c2)c1NC(=O)c1cccnc1` the Potency was inconclusive: 3.55 µM [inhibitor, single point].
In the case of `Cc1ccc(O)c(N=Nc2ccccc2)n1`, the Potency is reported as “inactive”.
With `O=C(Nc1cccc(Cl)c1)OCCN1CCN(Cc2ccccc2)CCC1=O` the Potency was inconclusive: 3.55 µM [inhibitor, single point].
For `Cc1ccccc1NC(=O)Cn1c(O)c(N=NC(=O)c2ccccc2O)c2ccccc21`, the Potency was inconclusive: 5.01 µM [inhibitor, single point].
With `Cc1c(NC(=O)COC(=O)COc2ccc(Nc3ccccc3)cc2)c(=O)n(-c2ccccc2)n1C` the Potency was inconclusive: 1.12 µM [inhibitor, full curve, poor fit].
`Cc1c(C)c2c(c(C)c1O)CCC(C)(COc1ccc(CC3SC(=O)NC3=O)cc1)O2` (stereo not given) was tested, and the Potency was “inactive”.
With `COc1ccc2c(c1)OC/C(=C\c1ccc(OC)c(O)c1)C2=O` the Potency was inconclusive: 31.6 µM [inhibitor, single point].
`O=C(c1ccco1)N1CCN(C(=O)C2CCN(S(=O)(=O)Cc3ccccc3)CC2)CC1` was tested, and the Potency was inconclusive: 1 µM [inhibitor, full curve].
`CC(=O)Nc1ccc(S(=O)(=O)/N=C2/NC(=O)/C(=C\c3ccco3)S2)cc1` was tested, and the Potency was inconclusive: 39.8 µM [inhibitor, single point].
In the case of `Cn1[nH]c(CSc2ccc(Cl)cc2)cc1=O`, the Potency is reported as inconclusive: 28.2 µM [inhibitor, single point].
`Oc1csc(Cc2nc(-c3ccccc3F)cs2)n1` was tested, and the Potency was inconclusive: 10 µM [inhibitor, partial curve].
`O=C(O)C1C2C=CC3(O2)C1C(=O)N1c2ccccc2C2OCCC2C13` (stereo not given) was tested, and the Potency was inconclusive: 28.2 µM [inhibitor, single point].
With `CCOc1ccc(OCC)c(S(=O)(=O)NCCOC23CC4CC(CC(C4)C2)C3)c1` the Potency was inconclusive: 0.355 µM [inhibitor, full curve].
`CC(C)(C)OC=O` was tested, and the “activity change, negative = inhibition” value was inactive: 0.816%.
With `COc1ccc2nc3sc(C(=O)NCCN4CCc5ccccc5C4)cc3cc2c1` the “activity change, negative = inhibition” value was inactive: 22.2%.
`CC(C)[n+]1ccn(C2=C([O-])c3ccccc3C(=O)/C2=N\S(=O)(=O)c2ccccc2)c1` was tested, and the Potency was inconclusive: 17.8 µM [inhibitor, partial curve].
In the case of `Cc1noc(C)c1COc1ccc(C(=O)OCC(=O)Nc2ccc3ccccc3c2)cc1`, the Potency is reported as inconclusive: 3.16 µM [inhibitor, single point].
With `COC(=O)C1=C(Nc2ccccc2NC(=O)c2ccccc2C(=O)O)CSC1` the Potency was inconclusive: 31.6 µM [inhibitor, partial curve].
`CCn1ccc(C(=O)Nc2ccsc2C(=O)OC)n1` was tested, and the Potency was inconclusive: 37.7 µM [inhibitor, single point].
With `C=C(C)C(O)/C=C/c1cccc(OC)c1` (stereo not given) the Potency was inconclusive: 3.55 µM [inhibitor, single point].
In the case of `CNc1cc(CSC)nc(SCc2ccc(Cl)cc2Cl)n1`, the Potency is reported as inconclusive: 12.6 µM [inhibitor, partial curve].
In the case of `COCCN(C(=O)COC(=O)Cc1coc2cc3c(cc12)CCC3)c1c(N)n(Cc2ccccc2)c(=O)[nH]c1=O`, the Potency is reported as active: 9.47 µM.
With `O=c1cc(-c2ccc(O)cc2)oc2cc(O)c([C@@H]3O[C@H](CO)[C@@H](O)[C@H](O)[C@H]3O)c(O)c12` the Potency was “inactive”.
For `Cc1ccc(Nc2nc(NCc3ccco3)c3ccccc3n2)cc1`, the “activity change, negative = inhibition” value was inactive: -0.164%.
With `O=C1Nc2ccccc2Oc2cc(Oc3ccccc3)ccc21` the Potency was inconclusive: 21.2 µM [inhibitor, partial curve].
With `CN1/C(=C\C(=O)COC(=O)CNC(=O)c2ccccc2F)C(C)(C)c2ccccc21` the “activity change, negative = inhibition” value was inactive: -3.75%.
With `CCn1c(SCC(=O)c2ccc(O)c(O)c2)nnc1-c1ccccc1OC` the Potency was inconclusive: 22.4 µM [inhibitor, partial curve].
In the case of `O=C(NC1CC1)c1sc2cc([N+](=O)[O-])ccc2c1Cl`, the “activity change, negative = inhibition” value is reported as inactive: -0.74%.
`CN(C)S(=O)(=O)c1ccc(C(=O)OCCCN=C2NS(=O)(=O)c3ccccc32)cc1` was tested, and the Potency was inconclusive: 31.6 µM [inhibitor, single point].
In the case of `CCCCN1/C(=C/c2ccc3ccccc3[n+]2CC)Sc2ccccc21`, the “activity change, negative = inhibition” value is reported as inactive: -5.54%.
With `CCNc1ncc2ncc(=O)n(C3CC3)c2n1` the Potency was inconclusive: 0.355 µM [inhibitor, full curve, poor fit].
In the case of `O=C(COC(=O)c1cnc(Cl)c(Cl)c1)NCCC1=CCCCC1`, the Potency is reported as inconclusive: 0.0398 µM [inhibitor, full curve, poor fit].
